Measurements published in PubChem BioAssay AID330 (DTP/NCI, 2004).
The list is a part of this screen's results and no random one: it gathers tests that were run many times, whatever their T/C, doses with no T/C, and many T/C values between a quarter and a half above the control. Further doses and runs are listed elsewhere. T/C is the treated group as % of the vehicle group. Some doses have a count of surviving animals in place of a T/C: the source files T/C as zero there, which appears to mark a toxic dose or a test without result, not a measured value. Some doses without a T/C left all or most animals alive at the check, yet need not have been tolerated: survival well below the control is almost never listed, so the zero probably covers shortened survival too. Survivors were counted at the toxicity check, usually on the fifth day, unless a day is given; later deaths do not show. Schedule codes are those of the source, taken here to give the interval after Q, in days (D) or hours (H), and the number of doses after X. For survival time, the PubChem record calls one and a half times the control and up active, and a quarter to a half above the control has no call in these data; cut-offs in other NCI protocols can differ. Some doses were run more than once; the results are listed from low to high. Some T/C values carry the count of animals alive at the toxicity check (mostly the fifth day); without a count, all were alive then.

Tested on: P388 leukemia ip, CD2F1 mice, survival T/C
Assay: NCI In Vivo Anticancer Drug Screen. Data for tumor model P388 Leukemia (intraperitoneal) in CD2F1 (CDF1) mice
Conditions: T/C endpoint: median survival time, higher T/C = longer survival
[1] = dose: 200.0 mg/kg/injection, schedule: Q01DX009 (ip), vehicle: saline
[2] = dose: 50.0 mg/kg/injection, schedule: Q01DX009 (ip), vehicle: saline with Tween-80
[3] = dose: 200.0 mg/kg/injection, schedule: Q01DX005 (ip), vehicle: saline with Tween-80
[4] = dose: 240.0 mg/kg/injection, schedule: Q01DX005 (ip), vehicle: Klucel (hydroxypropylcellulose) (HPC)
[5] = dose: 240.0 mg/kg/injection, schedule: Q01DX005 (ip), vehicle: saline with Tween-80
[6] = dose: 120.0 mg/kg/injection, schedule: Q01DX005 (ip), vehicle: saline with Tween-80
[7] = dose: 60.0 mg/kg/injection, schedule: Q01DX005 (ip), vehicle: Klucel (hydroxypropylcellulose) (HPC)
[8] = dose: 120.0 mg/kg/injection, schedule: Q01DX005 (ip), vehicle: Klucel (hydroxypropylcellulose) (HPC)
[9] = dose: 50.0 mg/kg/injection, schedule: Q01DX009 (ip), vehicle: saline
[10] = dose: 100.0 mg/kg/injection, schedule: Q01DX009 (ip), vehicle: saline
[11] = dose: 50.0 mg/kg/injection, schedule: Q01DX005 (ip), vehicle: saline with Tween-80
[12] = dose: 100.0 mg/kg/injection, schedule: Q01DX005 (ip), vehicle: saline with Tween-80
[13] = dose: 100.0 mg/kg/injection, schedule: Q01DX005 (ip), vehicle: saline
[14] = dose: 200.0 mg/kg/injection, schedule: Q01DX005 (ip), vehicle: saline

`O=C1Nc2ccc([N+](=O)[O-])cc2/C1=C/C(=O)c1ccccc1` was tested, and the survivor count (dose: 25.0 mg/kg/injection, schedule: Q01DX009 (ip), vehicle: saline with Tween-80) was 6 of 6.

With `CC(C)(C)N(N)Cc1ccccc1` the survivor count [1] was 1 of 6.

For `[Cl][Sn]1([Cl])[N]2CCCCC2C2CCCC[N]21` (stereo not drawn), the survivor count (dose: 400.0 mg/kg/injection, schedule: Q04DX003 (ip), vehicle: saline with Tween-80) was 5 of 6.

`COc1cc(C=Nc2ccc(-n3ccnc3C)cc2)ccc1N(CCCl)CCCl` was tested, and the T/C (dose: 2.5 mg/kg/injection, schedule: Q01DX009 (ip), vehicle: Klucel (hydroxypropylcellulose) (HPC)) was 136 % of control.

With `CCOC1OCN(c2ccccc2)CC1(C)C` (stereo not drawn) the T/C [2] was 126 % of control, the T/C (dose: 100.0 mg/kg/injection, schedule: Q01DX009 (ip), vehicle: saline with Tween-80) was 138 % of control and the T/C (dose: 200.0 mg/kg/injection, schedule: Q01DX009 (ip), vehicle: saline with Tween-80) was 147 % of control.

`S=c1n(-c2ccc(Cl)cc2)c2nc3ccccc3nc(/c2=N\Nc2cc(Cl)ccc2Cl)n1-c1ccccn1` was tested, and the survivor count [3] was 2 of 6.

`Oc1ccc(O)c(/C=N/NC(=S)NC2CC3CC2C2C=CCC32)c1` (stereo not drawn) was tested, and the survivor count (dose: 400.0 mg/kg/injection, schedule: Q01DX009 (ip), vehicle: olive oil, sesame oil, peanut oil) was 2 of 6.

With `CC(O)(c1ccco1)c1nc2ccccc2s1` (stereo not drawn) the survivor count [4] was 0 of 6.

For `FC(F)(F)c1ccccc1NC(=S)SCc1ccc2c(c1)OCO2`, the survivor count (dose: 50.0 mg/kg/injection, schedule: Q01DX009 (ip), vehicle: suspension in saline) was 6 of 6, the survivor count (dose: 100.0 mg/kg/injection, schedule: Q01DX009 (ip), vehicle: suspension in saline) was 5 of 6 and the survivor count (dose: 200.0 mg/kg/injection, schedule: Q01DX009 (ip), vehicle: suspension in saline) was 5 of 6.

`CCOC(=O)C1=C(C(=O)c2ccccc2)C(c2ccc(Cl)cc2Cl)C(C(=O)c2ccccc2)=C(C(=O)OCC)N1` was tested, and the survivor count [5] was 0 of 6.

In the case of `CCOC(=O)C(=CNc1cc(C)c2[nH]c3ccc(Cl)cc3c2c1C)C(=O)OCC`, the survivor count (dose: 60.0 mg/kg/injection, schedule: Q01DX005 (ip), vehicle: saline with Tween-80) is reported as 6 of 6 and the survivor count [6] is reported as 6 of 6.

With `CCCCN1CCC2(C)c3cc(O)ccc3CC1C2CC` (stereo not drawn) the survivor count [7] was 6 of 6, the survivor count [8] was 6 of 6 and the survivor count [4] was 4 of 6.

For `CN1P(=N)(N)N=P(c2ccccc2)(c2ccccc2)N=P1(c1ccccc1)c1ccccc1` (stereo not drawn), the survivor count (dose: 50.0 mg/kg/injection, schedule: Q01DX009 (ip), vehicle: Klucel (hydroxypropylcellulose) (HPC)) was 6 of 6 and the survivor count (dose: 100.0 mg/kg/injection, schedule: Q01DX009 (ip), vehicle: Klucel (hydroxypropylcellulose) (HPC)) was 4 of 6.

`C/C(=N/NC(N)=O)c1cccc(/C(C)=N/NC(N)=O)n1.[Cl][Zn][Cl]` was tested, and the survivor count [9] was 2 of 6, the survivor count [10] was 1 of 6 and the survivor count [1] was 0 of 6.

In the case of `CC1CN1c1cc(O)c(N2CC2C)cc1O` (stereo not drawn), the T/C (dose: 1.0 mg/kg/injection, schedule: Q01DX009 (ip), vehicle: saline with Tween-80) is reported as 136 % of control, the T/C (dose: 1.25 mg/kg/injection, schedule: Q04DX003 (ip), vehicle: saline with Tween-80) is reported as 127 % of control and the survivor count (dose: 10.0 mg/kg/injection, schedule: Q04DX003 (ip), vehicle: saline with Tween-80) is reported as 6 of 6. For the same molecule, the survivor count (dose: 15.0 mg/kg/injection, schedule: Q04DX003 (ip), vehicle: saline with Tween-80) was 4 of 6.

For `Fc1ccc2cc3cccc[n+]3cc2c1`, the survivor count [11] was 3 of 5, the survivor count [12] was 0 of 5 and the survivor count [3] was 0 of 5.

For `COC1=CC(=O)C(C#CCOCc2ccccc2)=CC1=O`, the survivor count [7] was 3 of 6, the survivor count [8] was 2 of 6 and the survivor count [4] was 0 of 6.

With `CCC1OC(OC)C=CC1=O` (stereo not drawn) the T/C (dose: 50.0 mg/kg/injection, schedule: Q01DX005 (ip), vehicle: saline) was 137 % of control, the T/C (dose: 100.0 mg/kg/injection, schedule: Q01DX005 (ip), vehicle: Klucel (hydroxypropylcellulose) (HPC)) was 129 % of control and the T/C [13] was 137 % of control. For the same molecule, the survivor count [14] was 0 of 6.

With `COc1ccc(OC)c(C2=CC(=O)C=CC2=O)c1` the survivor count [11] was 2 of 6, the survivor count [12] was 0 of 6 and the survivor count [3] was 0 of 6.

In the case of `Cn1cccc([N+](=O)[O-])c1=O`, the T/C [9] is reported as 99 [5 of 6 alive], 105, 109 % of control, the survivor count [9] is reported as 2 of 6 and the survivor count (dose: 90.0 mg/kg/injection, schedule: Q01DX009 (ip), vehicle: Klucel (hydroxypropylcellulose) (HPC)) is reported as 0 of 6. The survivor count [10] was 0 of 6, the survivor count (dose: 135.0 mg/kg/injection, schedule: Q01DX009 (ip), vehicle: Klucel (hydroxypropylcellulose) (HPC)) was 0 of 6 and the survivor count [1] was 0 of 6.

In the case of `Clc1ccc2nc(CBr)cnc2c1`, the survivor count [2] is reported as 5 of 6.

In the case of `CCN(CC)CCSc1c2ccc(Cl)cc2nc2ccc(OC)cc12`, the survivor count [13] is reported as 3 of 5 and the survivor count [14] is reported as 1 of 5.

`ClC1=C(Cl)[C@@]2(Cl)[C@H]3[C@H]4C[C@H]([C@@H]5O[C@H]45)[C@H]3[C@@]1(Cl)C2(Cl)Cl` was tested, and the survivor count (dose: 25.0 mg/kg/injection, schedule: Q04DX003 (ip), vehicle: Klucel (hydroxypropylcellulose) (HPC)) was 6 of 6 and the survivor count (dose: 50.0 mg/kg/injection, schedule: Q04DX003 (ip), vehicle: Klucel (hydroxypropylcellulose) (HPC)) was 2 of 6.

`Cc1cc(Cl)ccc1N1C(=O)[N+](C)(C)N=C1[O-]` was tested, and the survivor count (dose: 400.0 mg/kg/injection, schedule: Q04DX003 (ip), vehicle: saline) was 4 of 6.

For `C1=CN2C3=NCCN3C3=NCCN3C2c2ccccc21` (stereo not drawn), the survivor count (dose: 100.0 mg/kg/injection, schedule: Q04DX002 (ip), vehicle: Klucel (hydroxypropylcellulose) (HPC)) was 0 of 6, the survivor count (dose: 200.0 mg/kg/injection, schedule: Q04DX002 (ip), vehicle: Klucel (hydroxypropylcellulose) (HPC)) was 0 of 6 and the survivor count (dose: 400.0 mg/kg/injection, schedule: Q04DX002 (ip), vehicle: Klucel (hydroxypropylcellulose) (HPC)) was 0 of 6.

`COc1cc(C(c2cc3c(cc2O)OCO3)N2CCCCC2)cc(OC)c1OC` (stereo not drawn) was tested, and the T/C [6] was 127 % of control, the T/C [5] was 125 and 127 % of control and the survivor count (dose: 480.0 mg/kg/injection, schedule: Q01DX005 (ip), vehicle: saline with Tween-80) was 1 of 6.

With `Nc1ccc(Cl)cc1C(=O)N1CCN(c2ccc([N+](=O)[O-])cn2)CC1` the survivor count [7] was 6 of 6, the survivor count [8] was 6 of 6 and the survivor count [4] was 6 of 6.

`CCSCCNC(=O)[C@@]1(O)[C@H](O)[C@]2(CC)C=CCN3CC[C@@]4(c5cc([C@@]6(OC(C)=O)C[C@H]7C=C(CC)CN(CCc8c6[nH]c6ccccc86)C7)c(OC)cc5N(C)[C@@H]14)[C@@H]32` was tested, and the T/C (dose: 1.0 mg/kg/injection, schedule: Q01DX001 (ip), vehicle: water) was 129 % of control, the T/C (dose: 2.0 mg/kg/injection, schedule: Q01DX001 (ip), vehicle: water) was 132 and 139 % of control and the T/C (dose: 4.0 mg/kg/injection, schedule: Q01DX001 (ip), vehicle: water) was 149 % of control. For the same molecule, the T/C (dose: 8.0 mg/kg/injection, schedule: Q01DX001 (ip), vehicle: water) was 142 % of control and the survivor count (dose: 16.0 mg/kg/injection, schedule: Q01DX001 (ip), vehicle: water) was 3 of 6.

In the case of `CC(=O)NC1=C(N2CC2C)C(=O)C(NC(C)=O)=C(N2CC2C)C1=O` (stereo not drawn), the T/C (dose: 12.5 mg/kg/injection, schedule: Q01DX009 (ip), vehicle: saline) is reported as 145 % of control, the survivor count (dose: 25.0 mg/kg/injection, schedule: Q01DX009 (ip), vehicle: saline) is reported as 6 of 6 and the survivor count [9] is reported as 5 of 6.

With `CCOC(=O)Nc1nncs1` the T/C (dose: 50.0 mg/kg/injection, schedule: Q01DX009 (ip), vehicle: distilled water + Tween-80) was 132 % of control, the T/C (dose: 100.0 mg/kg/injection, schedule: Q01DX009 (ip), vehicle: distilled water + Tween-80) was 142 % of control and the survivor count (dose: 400.0 mg/kg/injection, schedule: Q01DX009 (ip), vehicle: distilled water + Tween-80) was 2 of 6.
